{"source": "PubChem BioAssay AID1259308 (NCATS, 2017)", "assay": "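Knock-downs that increase output of a recombinant reporter protein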 (primary screen)", "cell system": "human HEK293 embryonic kidney cells stably expressing firefly luciferase (HEK-CMV-Luc2-Hygro)", "knock-down reagent": "single siRNA against human genes, 0.8 pmol siRNA per well", "timing": "72 h", "read-out": "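Reporter luminescence and viable-cell signal on separate replicate plates, given as percent of non-targeting control and median/MAD z-scores, plus per-cell luciferase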", "direction": "total luciferase, z-score and total luciferase, % of control: higher = more reporter protein produced", "hit rule": "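An siRNA counts as active if its total luciferase robust z-score exceeds 3; genes with two or more such siRNAs out of three were retested with fresh siRNAs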", "meaning of the calls": "active = raised luciferase; inactive = no rise", "note": "The deposit covers about 59,000 reagents; this is a random part of them. About 1,510 of them (2.6%) count as active. 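Calls use total luciferase alone and ignore viability, so some active siRNAs may act by altering cell number.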 Reagents against one gene are numbered here. Not all columns of the deposit are shown."}
{"gene": "PPP1R12A (GeneID 4659)", "reagent no.": 1, "total luciferase, z-score": 2.16, "total luciferase, % of control": 125, "call": "inactive"}
{"gene": "PPP1R12A (GeneID 4659)", "reagent no.": 2, "total luciferase, z-score": -0.517, "total luciferase, % of control": 71.6, "call": "inactive"}
{"gene": "PPP1R12A (GeneID 4659)", "reagent no.": 3, "total luciferase, z-score": 1.42, "total luciferase, % of control": 110, "call": "inactive"}
{"gene": "CENPQ (GeneID 55166)", "reagent no.": 1, "total luciferase, z-score": 0.555, "total luciferase, % of control": 92.9, "call": "inactive"}
{"gene": "CENPQ (GeneID 55166)", "reagent no.": 2, "total luciferase, z-score": 0.227, "total luciferase, % of control": 86.4, "call": "inactive"}
{"gene": "CENPQ (GeneID 55166)", "reagent no.": 3, "total luciferase, z-score": 0.194, "total luciferase, % of control": 85.7, "call": "inactive"}
{"gene": "MDM2 (GeneID 4193)", "reagent no.": 1, "total luciferase, z-score": 0.338, "total luciferase, % of control": 88.6, "call": "inactive"}
{"gene": "MDM2 (GeneID 4193)", "reagent no.": 2, "total luciferase, z-score": 0.422, "total luciferase, % of control": 90.3, "call": "inactive"}
{"gene": "MDM2 (GeneID 4193)", "reagent no.": 3, "total luciferase, z-score": 3.63, "total luciferase, % of control": 154, "call": "active"}
{"gene": "H6PD (GeneID 9563)", "reagent no.": 1, "total luciferase, z-score": -0.715, "total luciferase, % of control": 67.7, "call": "inactive"}
{"gene": "H6PD (GeneID 9563)", "reagent no.": 2, "total luciferase, z-score": -0.942, "total luciferase, % of control": 63.1, "call": "inactive"}
{"gene": "H6PD (GeneID 9563)", "reagent no.": 3, "total luciferase, z-score": -0.965, "total luciferase, % of control": 62.7, "call": "inactive"}

2 entries from above, ordered by “total luciferase, z-score”, descending.
{"gene": "CENPQ (GeneID 55166)", "reagent no.": 2, "total luciferase, z-score": 0.227, "total luciferase, % of control": 86.4, "call": "inactive"}
{"gene": "CENPQ (GeneID 55166)", "reagent no.": 3, "total luciferase, z-score": 0.194, "total luciferase, % of control": 85.7, "call": "inactive"}
